Assay results taken from US20160287536A1, “Composition” (THE UNIVERSITY OF NOTTINGHAM, priority 2013, published 2016).

Experiments:
α1-adrenoceptor = assay: Saturation radioligand binding of [^3H]-prazosin to sheep anorectal tissue membranes; details: sheep vascular tissues
α2-adrenoceptor = assay: Saturation radioligand binding of [^3H]-RX821002 to sheep anorectal tissue membranes; details: sheep vascular tissues

Structure (SMILES)	difference in Kd between artery and vein (α1-adrenoceptor)	difference in Kd between artery and vein (α2-adrenoceptor)
COc1cc2nc(N3CCN(C(=O)c4ccco4)CC3)nc(N)c2cc1OC [[^3H]-prazosin]	2-3 fold	
COC1(C2=NCCN2)COc2ccccc2O1 (centres unmarked) [[^3H]-RX821002, 2-(2-methoxy-1,4-benzodioxan-2-yl)-2-imidazoline]		about 5 fold
